Patent US7977304B2, “FK 228 derivates as HDAC inhibitors” (University of Southampton Highfield, priority 2005, dated 2011)

Experiments:
Format in all cases: cell-based
[1] = system: LNCAP prostate cancer cells; assay: Activity Assay 6: CyQuant cell growth inhibition, LNCAP; details: Homo sapiens, 96 h, 4 days
Protocol: (§1) We analysed the ability of compounds to inhibit the in vitro growth of human cancer cells. Cell proliferation assays were performed using the CyQuant™ assay system (Molecular Probes, Inc. USA) according to the manufacturer's instructions. MCF7 breast, A2780 ovarian and PC3 and LNCAP prostate cancer cells were plated in 96 well plates, at a density of 1000 cells for MCF7 cells or 5000 cells for M780/PC3/LNCAP cells, in 100 μl of cell culture medium per well. Compounds were added a minimum of 5 hours later, in serial dilutions in cell culture medium, in 100 μl volumes at 2× final concentration. Cell culture medium was removed after 4 (A2780, PC3 or LNCAP cells) or 6 days (MCF7 cells) by inversion of the plate onto blotting paper and cells were gently washed once with 200 μl PBS. Plates were frozen immediately for a minimum of one hour at −80° C. and then thawed. 200 μl of 1× CyQuant cell lysis buffer supplemented with dye, made according to the manufacturer's instruction, was added immediately to each well and incubated at room temperature for 3-5 minutes. Fluorescence was then measured for each well using a Cytofluor II Fluoresence Multiwell Plate Reader and CytoFluor II software with filters at 480 nm for excitation and 520 nm for emission maxima. Cell proliferation was determined for mean values of duplicate samples as percentages relative to untreated cell samples (=100%). […]

[2] = system: TNFα production from peripheral blood mononuclear cells (PBMCs); assay: Activity Assay 7: LPS-induced TNFα secretion from PBMCs (QUANTIKINE immunoassay); details: Homo sapiens, PBMC; Concentration 200 nM
Protocol: We analysed the ability of compounds to inhibit the production of TNFα from peripheral blood mononuclear cells (PBMCs). TNF-α immunoassays were carried out using the QUANTIKINE® Human TNF-α assay kit (R&D systems, Abingdon UK) according to the manufacturer's instructions. Human whole blood was separated using Ficol Paque™ Plus (GE Healthcare, Arnersham, UK) and the PBMCs were plated in 24 well plates, at a density of 2.5×10^6 in 500 μl of cell culture medium per well. Compounds were added 1 hour later in volumes of 100 μl at 6× final concentration. Five hours later lipopolysaccharide (LSP, Sigma, Poole, UK) was added in a volume of 10 μl at 60× final concentration. Plates were mixed and left overnight at 37° C. 5% C02. Plates were centrifuged and cell supernatant was transferred to a new plate. The QUANTIKINE® assay reagents and standards were prepared according to the manufacturer instructions. […] 50 μl of stop solution was added to each well in the same order as the substrate solution and the plate was read on a Biorad 680 96 well plate reader (Bio-Rad, Hemel Hempstead, UK) at 450 nm with λ correction at 570 nm. TNF-α levels were determined for mean values of duplicate samples using absorbance in nm, calibration zero values were subtracted from all results to correct for the addition of calibrator diluent in the assay.

[3] = system: normal human dermal fibroblasts (NHDF); assay: Activity Assay 1: CyQuant cell proliferation assay, NHDF; details: 144 h, 6 days, SAHA value from single experiment performed in duplicate, read-out: mean IC50 for growth inhibition (±SD), NHDF
Protocol: (§2) Method; Cell proliferation assays were performed using the CyQuant™ assay system (Molecular Probes, Inc. USA) according to the manufacturer's instructions. This system utilises a proprietary green fluorescent dye which undergoes strong fluorescent enhancement on binding cellular nucleic acids, to allow determination of cell number with a linear detection range between 50 to 250,000 cells. Estrogen receptor positive MCF7 breast cancer cells (ECAAC) and NHDF cells (Cambrex, UK) were plated in 96 well plates, at a density of 1000 cells in 100 μl of cell culture medium per well. Compounds were added a minimum of 5 hours later, in serial dilutions in cell culture medium, in 100 μl volumes at 2× final concentration. Six days later cell culture medium was removed by inversion of the plate onto blotting paper and cells were gently washed once with 200 μl PBS. […] Fluorescence was then measured for each well using a Cytofluor II Fluoresence Multiwell Plate Reader and CytoFluor II software with filters at 480 nm for excitation and 520 nm for emission maxima. Cell proliferation was determined for mean values of duplicate samples as percentages relative to untreated cell samples (=100%). […]
(§3) MCF7 and NHDF were incubated with the indicated concentrations of compounds. After 6 days cell growth relative to untreated cells (=100%) was determined using the CyQuant™ assay. […]

[4] = system: A2780 ovarian cancer cells; assay: Activity Assay 6: CyQuant cell growth inhibition, A2780; details: Homo sapiens, 96 h, A2780, 4 days
Protocol: as §1

MCF7 breast cancer cells = assay: Activity Assay 6: CyQuant cell growth inhibition, MCF7; details: Homo sapiens, 144 h, MCF7, 6 days
Protocol: as §1

[5] = system: MCF7 human breast cancer cells; assay: Activity Assay 1: CyQuant cell proliferation assay, MCF7; details: 144 h, MCF7, 6 days, mean ± SD of multiple experiments, read-out: mean IC50 for growth inhibition (±SD), MCF7
Protocol: as §2, §3

`O=C(CCCCCCC(=O)Nc1ccccc1)NO` [SAHA, Suberoylanilide hydroxamic acid, reference compound] showed an IC50 [1] of 4 µM, an inhibition at 0.2 µM [2] of 59% and an IC50 [3] of ~2 µM. The IC50 [4] was 0.595 µM, the IC50 (MCF7 breast cancer cells) was 0.483 µM and the IC50 [5] was 0.483 ± 0.109 µM.
